From PMC13453871
No constants are given. Whether binding was seen depends on the method and setting. Binding seen in cells or lysates may run through a third protein. Some binding calls cover weakened binding; strength is not graded here. Each block holds one binder with its values, some of them ahead of it.

Tests used:
annexin A1 [1] = molecular target: T1, annexin A1 (UniProt P04083); assay: co-IP; IP (Fig. S2H); bait, cells and conditions not told in the main text
T1 sequence: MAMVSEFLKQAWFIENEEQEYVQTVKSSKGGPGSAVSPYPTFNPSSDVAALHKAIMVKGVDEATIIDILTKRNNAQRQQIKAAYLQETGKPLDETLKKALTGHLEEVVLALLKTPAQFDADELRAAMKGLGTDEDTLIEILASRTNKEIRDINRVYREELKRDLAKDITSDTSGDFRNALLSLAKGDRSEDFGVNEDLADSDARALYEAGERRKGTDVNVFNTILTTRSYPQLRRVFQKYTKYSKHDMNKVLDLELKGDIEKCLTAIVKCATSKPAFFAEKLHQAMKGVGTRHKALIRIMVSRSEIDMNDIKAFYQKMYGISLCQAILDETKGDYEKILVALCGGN

annexin A1 [2] = molecular target: T1, annexin A1; assay: co-IP; reciprocal Co-IP of ANXA1 and UCP1; cells and conditions not told in the main text

binding (annexin A1 [1]): binds
B1: thioredoxin (protein, UniProt P10599 1-105)
chain: MVKQIESKTAFQEALDAAGDKLVVVDFSATWCGPCKMIKPFFHSLSEKYSNVIFLEVDVDDCQDVASECEVKCMPTFQFFKKGQKVGEFSGANKEKLEATINELV

binding (annexin A1 [2]): no binding
B2: uncoupling protein 1 (protein, UniProt P25874 1-307)
chain: MGGLTASDVHPTLGVQLFSAGIAACLADVITFPLDTAKVRLQVQGECPTSSVIRYKGVLGTITAVVKTEGRMKLYSGLPAGLQRQISSASLRIGLYDTVQEFLTAGKETAPSLGSKILAGLTTGGVAVFIGQPTEVVKVRLQAQSHLHGIKPRYTGTYNAYRIIATTEGLTGLWKGTTPNLMRSVIINCTELVTYDLMKEAFVKNNILADDVPCHLVSALIAGFCATAMSSPVDVVKTRFINSPPGQYKSVPNCAMKVFTNEGPTAFFKGLVPSFLRLGSWNVIMFVCFEQLKRELSKSRQTMDCAT
